Screen size: about 320,000 compounds; about 22,000 (6.9%) were called active. Inconclusive results, whose numbers are uncertain, are shown with a selection of clear calls. Calls come from the whole dose curve; as a rule, active = well fitted inhibition curve with a large enough effect; inconclusive = small, poorly fitted or top-dose-only effect, or another doubt; inactive = no such curve, though single readings can be large or run the other way. Potencies of inconclusive entries are doubtful fits and often do not repeat.
Test: Primary qHTS for delayed death inhibitors of the malarial parasite plastid, 96 hour incubation
Details: P. falciparum luciferase reporter growth; series mostly up to 28.7 µM; activity change, negative = inhibition: at the top concentration
Procedure, shortened: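 Infected RBCs, 2% Hct / 0.05% parasitemia final; luciferase-reporter P. falciparum; cpd 96 h, 37 C, 5% CO2; luciferase detection reagent; luminescence.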
% is set by controls: 0 for no effect and ±100 for the full control effect; potency is the fitted concentration of half-maximal effect.

Row | Structure (SMILES) | Potency | activity change, negative = inhibition
1 | CCc1nnc(NC(=O)CN2CCCC(C)C2)s1 (stereo unspecified) | inconclusive: 4.15 µM [inhibitor, single point] | 
2 | COCCn1cnnc1SCC(=O)Nc1cccc(S(=O)(=O)N2CCCCC2)c1 | inconclusive: 6.57 µM [inhibitor, partial curve] | 
3 | CCCCN(C(=O)CSc1nnc(-c2ccc(Cl)cc2)o1)c1c(N)n(CC(C)C)c(=O)[nH]c1=O | inconclusive: 18.5 µM [inhibitor, single point] | 
4 | CCN(CC)S(=O)(=O)c1ccc(N2C(=O)CC2(/C=C/c2ccccc2)C(=O)NC2CCCC2)cc1 (stereo unspecified) | inconclusive: 18.5 µM [inhibitor, single point] | 
5 | C/C(=N\NS(=O)(=O)c1ccc([N+](=O)[O-])cc1)c1c[nH]c2ccccc12 | inconclusive: 18.5 µM [inhibitor, single point] | 
6 | COc1ccc(NC(=O)c2ccc(COCC(F)(F)C(F)F)cc2)cc1OC | inconclusive: 2.62 µM [inhibitor, full curve, poor fit] | 
7 | COc1cccc(N/C=C/C(=O)c2ccc(C)cc2)c1 |  | inactive: 145%
8 | C=CCOn1c(=O)c(-c2ccccc2)[n+]([O-])c2ccccc21 | inconclusive: 1.31 µM [inhibitor, partial curve, poor fit] | 
9 | CC(C)(C)CC(C)(C)NC(=S)Nc1ccc(S(=O)(=O)N2CCOCC2)cc1 | inconclusive: 18.5 µM [inhibitor, single point] | 
10 | COc1ccc(N2CCN(C(=O)C3CCN(C(=O)c4ccc([N+](=O)[O-])cc4)CC3)CC2)cc1 |  | inactive: 49.7%
11 | CCOC(=O)c1ccc(N/C=C\C(=O)c2cccc(OC)c2)cc1 |  | inactive: 108%
12 | O=C(NC(=S)Nc1sc2c(c1C(=O)O)CCCC2)c1ccccc1 |  | inactive: 0%
13 | C=CCn1c(O)c(N=NC(=S)Nc2ccccc2F)c2cc(S(=O)(=O)N3CCOCC3)ccc21 |  | inactive: 34.6%
14 | O=C1COc2ccc(OCc3ccc(F)cc3)cc21 |  | inactive: 30.6%
15 | Cc1ccc2c(c1)c1ncnc(N3CCOCC3)c1n2C | inconclusive: 18.5 µM [inhibitor, single point] | 
16 | CCOc1cc(/C=N/N=C(N)N)ccc1OCc1ccc(Cl)cc1 | inconclusive: 13.1 µM [inhibitor, single point] | 
17 | O=C(N/N=C/c1cc([N+](=O)[O-])ccc1N1CCNCC1)c1ccc([N+](=O)[O-])cc1 | active: 4.15 µM | 
18 | O=c1cc(-c2ccccc2)[nH]n1-c1ccc([N+](=O)[O-])cc1 | inconclusive: 10.4 µM [inhibitor, single point] | 
19 | COc1ccccc1-c1nnc2sc(COc3ccc(Cl)cc3Cl)nn12 | active: 10.4 µM | 
20 | Cc1ccc(CNC(=O)c2ccc(N3CCC4(CC3)CC(c3ccccc3)=NO4)c([N+](=O)[O-])c2)cc1 | inconclusive: 1.04 µM [inhibitor, single point] | 
21 | Cc1ccc(NC(=O)CSc2nccn2C)cc1F | inconclusive: 9.28 µM [inhibitor, single point] | 
22 | O=C(Nc1cc(Cl)ccc1-n1cncn1)c1ccc([N+](=O)[O-])o1 | inconclusive: 18.5 µM [inhibitor, single point] | 
23 | CN(Cc1cccnc1)C(=O)Cc1ccc(NS(=O)(=O)c2cccc(C(F)(F)F)c2)cc1 |  | inactive: -24.2%
24 | CC(=O)Nc1ccc(NC(=O)CCC(=O)OCC(=O)c2ccc(C)c([N+](=O)[O-])c2)cc1 | inconclusive: 1.04 µM [inhibitor, partial curve, poor fit] | 

Row | Structure (SMILES) | Potency | activity change, negative = inhibition
25 | O=C(COc1ccc(Cl)cc1)OCCNC12CC3CC(CC(C3)C1)C2 |  | inactive: -23.9%
26 | Cc1ccc(S(=O)(=O)c2nnn3c2nc(N2CCC(C(N)=O)CC2)c2ccccc23)cc1 |  | inactive: -3.19%
27 | CN(Cc1ccco1)C(=O)C1CCN(c2nnc(-n3cccc3)s2)CC1 |  | inactive: 0.398%
28 | O=C(CSc1nc2cccnc2n1Cc1ccccc1)N1CCCC1 | inconclusive: 18.5 µM [inhibitor, single point] | 
29 | CCN(Cc1cnn(C)c1)Cc1nc(C2(c3ccc(C)cc3)CCCC2)no1 | inconclusive: 5.22 µM [inhibitor, partial curve, poor fit] | 
30 | O=c1[nH]c(CSc2cccc[n+]2[O-])nc2ccccc12 | inconclusive: 2.62 µM [inhibitor, full curve, poor fit] | 
31 | Cc1cn(C2OC(COC(=O)c3ccccc3)C(OC(=O)c3ccccc3)C2OC(=O)c2ccccc2)c(=O)[nH]c1=O (stereo unspecified) | inconclusive: 18.5 µM [inhibitor, single point] | 
32 | Cc1c(C(=O)NC2CCC(C)CC2)oc2ccccc12 (stereo unspecified) |  | inactive: 112%
33 | C=CCC1NCCc2c(Br)cccc21 (stereo unspecified) | inconclusive: 2.33 µM [inhibitor, partial curve, poor fit] | 
34 | CCOc1ccc(S(=O)(=O)NCc2ccccn2)c(C)c1C | active: 10.4 µM | 
35 | Cn1c(-c2ccccc2)cnc1N | inconclusive: 0.294 µM [inhibitor, full curve, poor fit] | 
36 | CCN1CCN(Cc2ccc(NC(=O)c3cc(NC(=O)c4ccc5n[nH]nc5c4)cc(OC)c3)cc2C(F)(F)F)CC1 | active: 2.33 µM | 
37 | CC(C)=CC(=O)Nc1ccccc1C(N)=O |  | inactive: -23.3%
38 | COc1ccc(N(CC(=O)N2CCc3ccccc3C2)S(C)(=O)=O)cc1Cl | inconclusive: 5.22 µM [inhibitor, partial curve] | 
39 | CCc1cccc(NS(=O)(=O)c2ccc3c(c2)N(C)CCO3)c1 |  | inactive: -19.6%
40 | O=C(Nc1ccccc1C(=O)NCCCN1CCOCC1)c1ccccc1 |  | inactive: 11.3%
41 | CC(=O)c1ccc(NC(=S)NCC(c2ccco2)N2CCCC2)cc1 (stereo unspecified) | inconclusive: 11.7 µM [inhibitor, single point] | 
42 | O=C(c1ccc2c(c1)N(Cc1ccc(F)cc1)C(=O)c1ccccc1S2(=O)=O)N1CCN(c2ccccn2)CC1 | inconclusive: 18.5 µM [inhibitor, single point] | 
43 | O=C(O)c1cccc(-n2c(/C=C/c3ccc([N+](=O)[O-])cc3)nc3ccccc3c2=O)c1 | inconclusive: 18.5 µM [inhibitor, single point] | 
44 | Cc1c(O)ccc(/C=N/Nc2nc(-c3cccnc3)nc3ccccc23)c1O | active: 10.4 µM | 
45 | O=C(Nc1ccc(S(=O)(=O)N2CCCC2)cc1)C1CC(=O)N(CCc2ccc(F)cc2)C1 (stereo unspecified) | inconclusive: 14.7 µM [inhibitor, partial curve, poor fit] | 
46 | CCCC1=C(C(=O)OCC)C(c2cccs2)C(C#N)=C(N)O1 (stereo unspecified) | inconclusive: 0.294 µM [inhibitor, full curve, poor fit] | 
47 | Cc1ccc(C2CC(C(F)(F)F)n3nc(C(=O)NCc4c(C)nn(C)c4C)c(Cl)c3N2)cc1 (stereo unspecified) |  | inactive: 139%
48 | Cc1ccc(C(=O)N/N=C\c2ccncc2)s1 | inconclusive: 18.5 µM [inhibitor, single point] | 

Row | Structure (SMILES) | Potency | activity change, negative = inhibition
49 | S=C(NCCCN1CCOCC1)N1CCN(c2cccc(Cl)c2)CC1 | inconclusive: 18.5 µM [inhibitor, partial curve, poor fit] | 
50 | O=C(CC1SC(N2CCCCC2)=NC1=O)Nc1ccc(C(=O)Nc2ccccc2)cc1 (stereo unspecified) | inconclusive: 16.5 µM [inhibitor, partial curve, poor fit] | 
51 | COc1cccc(N(C(=O)c2ccco2)C(C(=O)NC2CCCC2)c2ccc(N3CCOCC3)cc2)c1 (stereo unspecified) |  | inactive: 18.3%
52 | Cc1ccc(Cl)cc1N(C)C(=O)Cn1ncc2c([nH]c3ccccc32)c1=O | inconclusive: 5.22 µM [inhibitor, partial curve, poor fit] | 
53 | COCCNC(=O)c1ccc2ccccc2n1 |  | inactive: 16.4%
54 | Cc1cccc(NC(=O)C2CCCN(S(=O)(=O)c3ccc4c(c3)oc(=O)n4C)C2)c1 (stereo unspecified) | inconclusive: 4.15 µM [inhibitor, partial curve, poor fit] | 
55 | c1ccc(-n2ncc3c(N4CCN(c5ccccn5)CC4)nc(N4CCCCC4)nc32)cc1 |  | inactive: -36.9%
56 | Cc1nc(C)c(CC(=O)N2CCc3c([nH]c4ccccc34)C2c2ccccn2)s1 (stereo unspecified) | active: 10.4 µM | 
57 | O=c1ccc(S(=O)(=O)N2CCCC2)cn1Cc1ccc(Cl)cc1Cl | inconclusive: 5.22 µM [inhibitor, partial curve] | 
58 | COc1ccc(CCN2CC(C(=O)NCCc3ccccc3)CC2=O)cc1OC (stereo unspecified) | inconclusive: 18.5 µM [inhibitor, single point] | 
59 | Cc1cccc(C)c1NC(=O)CSCc1cccc(CSCC(=O)Nc2c(C)cccc2C)n1 | active: 5.22 µM | 
60 | CCN1CCN(c2ccc(NC(=O)c3ccc4c(c3)OCCO4)cc2C)CC1 |  | inactive: 92%
61 | CS(=O)(=O)N(CC(=O)NC1CCCCC1)Cc1ccc(F)cc1 |  | inactive: 2.1%
62 | Cc1c(NC(=O)C2CC(c3cccc(Br)c3)=NO2)c(=O)n(-c2ccccc2)n1C (stereo unspecified) |  | inactive: 4.02%
63 | COCCn1c(SCC(=O)NCC2CCCO2)nc2c(c1=O)SCC2 (stereo unspecified) |  | inactive: -22.3%
64 | Cc1cccc(OCC(O)CN2CC3(C)CC2CC(C)(C)C3)c1 (stereo unspecified) | inconclusive: 18.5 µM [inhibitor, single point] | 
65 | Cc1cc(NC(=O)CSc2ccc3nnc(-c4cccc(F)c4)n3n2)no1 | inconclusive: 7.38 µM [inhibitor, partial curve] | 
66 | O=C(CC(Nc1ccccc1Cl)C(=O)O)c1ccccc1 (stereo unspecified) |  | inactive: -10.2%
67 | CCOc1ccc(S(=O)(=O)NCCC(=O)NCC2(N3CCCCC3)CCCCC2)cc1 | inconclusive: 10.4 µM [inhibitor, single point] | 
68 | Cc1ccc(NC(=O)CCn2c(=O)c3cccn3c3ccccc32)c(C)c1 | active: 13.1 µM | 
69 | Cn1c(SCC(=O)Nc2nccs2)nnc1-c1ccc(S(=O)(=O)N2CCCC2)cc1 | active: 6.57 µM | 
70 | CCOC(=O)Cc1csc(NC(=O)CSc2nc(=O)[nH]c3c2CCC3)n1 |  | inactive: 1.3%
71 | CCOC(=O)N1CCN(c2c(NCCCN(C)c3ccccc3)c(=O)c2=O)CC1 |  | inactive: 17.9%

Some of the entries so far, tab-delimited:
Row	Structure (SMILES)	Potency	activity change, negative = inhibition
63	COCCn1c(SCC(=O)NCC2CCCO2)nc2c(c1=O)SCC2 (stereo unspecified)		inactive: -22.3%
65	Cc1cc(NC(=O)CSc2ccc3nnc(-c4cccc(F)c4)n3n2)no1	inconclusive: 7.38 µM [inhibitor, partial curve]	

Source: PubChem BioAssay AID504834 (National Center for Advancing Translational Sciences (NCATS), 2011)
